Measurements as given in PMC9246096, “Structure-activity relationship studies for inhibitors for vancomycin-resistant Enterococcus and human carbonic anhydrases” (Journal of Enzyme Inhibition and Medicinal Chemistry, 2022).

Sequences of proteins named here, by UniProt entry; tags and fusion partners are left off.
UniProt Q3XX77, entry or part of it: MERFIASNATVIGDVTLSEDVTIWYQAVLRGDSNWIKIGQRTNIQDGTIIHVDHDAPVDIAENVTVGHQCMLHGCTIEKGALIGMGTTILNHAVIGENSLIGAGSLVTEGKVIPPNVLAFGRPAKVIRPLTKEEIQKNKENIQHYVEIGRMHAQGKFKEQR

Target: E. faecium γ-CA (Efγ-CA) (Enterococcus faecium, UniProt Q3XX77)
Test: biochemical
Conditions: recombinant Efγ-CA, Ki from IC50 via Cheng–Prusoff
Procedure: Both Efα-CA and Efγ-CA were recombinantly expressed and purified as follows. A pHis2 plasmid (GenScript) containing either the Efα-CA sequence or Efγ-CA sequence was used for the expression of hexa-histidine tagged protein in a bacterial culture. […] Starter cultures were grown at 37 °C with shaking at 225 rpm overnight. One litre of autoclaved Luria-Bertani broth containing 100 µg/mL ampicillin and 1 mM ZiCl2 was inoculated with a 10-ml aliquot of the starter culture and grown at 37 °C with shaking at 225 rpm to an OD of 0.8 before being cold shocked and induced with 500 µL of IPTG (1 M). The induced cultures were grown for 16 h at 17 °C with shaking at 225 rpm. Bacterial cell pellets were spun down at 4000 g for 20 min and resuspended in 1× PBS containing 0.5 mM TCEP, 5% glycerol, pH = 7.4 to which 5 mg lysozyme was added to aid in lysis. The resuspended bacterial cells were incubated on ice for 20 min and then lysed via sonication. […] Fractions that contained the desired protein, as determined by SDS-PAGE, were combined and subjected to TEV protease for His-tag cleavage. […]
The assay was performed according to previously published protocols. […] Ki values were determined from inputting the IC50 values into the Cheng–Prusoff equation[25] for Ki from catalytic inhibition constants.

CC(=O)Nc1nnc(S(N)(=O)=O)s1 [AZM, acetazolamide, reference compound]
Ki: 323 nM
